# From the supplement of paper PMC8728848
# Some of the results follow.
# Key:
# Experiment in all cases: glycan array binding signal (z-score within array); higher = stronger binding
# Conditions in all cases: glycan notation: IUPAC condensed, linker removed
# [1] = biological target: Gal(b1-4)GlcNAc(b1-6)GalNAc
# Summary of the method: (§1)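 Negative Z-scores can be read as non-binding. The Z-score is calculated within each array and then averaged across arrays of one protein sequence at different concentrations or buffers and across linkers. Arrays, 3228 in all, were curated from the Consortium for Functional Glycomics database and kept only where the protein sequence was available.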
# [2] = biological target: Gal(b1-4)GlcNAc(b1-6)[Gal(b1-3)]GalNAc
# Summary of the method: as §1
# [3] = biological target: Gal(b1-4)GlcNAc(b1-6)[Gal(b1-4)GlcNAc(b1-3)]GalNAc
# Summary of the method: as §1
# [4] = biological target: Gal(b1-4)GlcNAc6P
# Summary of the method: as §1
# [5] = biological target: Gal(b1-6)Gal
# Summary of the method: as §1
# [6] = biological target: Gal3S(b1-3)GalNAc
# Summary of the method: as §1
# [7] = biological target: Gal3S(b1-3)GlcNAc
# Summary of the method: as §1
# [8] = biological target: Gal3S(b1-3)[Fuc(a1-4)]GlcNAc
# Summary of the method: as §1
# [9] = biological target: Gal3S(b1-4)Glc
# Summary of the method: as §1
# [10] = biological target: Gal3S(b1-4)Glc6S
# Summary of the method: as §1
# [11] = biological target: Gal3S(b1-4)GlcNAc
# Summary of the method: as §1
# [12] = biological target: Gal3S(b1-4)[Fuc(a1-3)]Glc6S
# Summary of the method: as §1
# [13] = biological target: Gal3S(b1-4)[Fuc(a1-3)]GlcNAc
# Summary of the method: as §1
# [14] = biological target: Gal3S(b1-4)[Fuc(a1-3)]GlcNAc6S
# Summary of the method: as §1
# [15] = biological target: Gal3S4S(b1-4)GlcNAc
# Summary of the method: as §1
# [16] = biological target: Gal3S6S(b1-4)GlcNAc
# Summary of the method: as §1
# [17] = biological target: Gal3S6S(b1-4)GlcNAc6S
# Summary of the method: as §1
# [18] = biological target: Gal4S(b1-4)GlcNAc
# Summary of the method: as §1
# [19] = biological target: Gal4S6S(b1-4)GlcNAc
# Summary of the method: as §1
# [20] = biological target: Gal6P(b1-4)GlcNAc
# Summary of the method: as §1
# [21] = biological target: Gal6S(b1-3)GlcNAc
# Summary of the method: as §1
# [22] = biological target: Gal6S(b1-3)GlcNAc6S
# Summary of the method: as §1
# [23] = biological target: Gal6S(b1-4)Glc
# Summary of the method: as §1
binder,measurement,setting,value
"Awp3 (Candida glabrata), B4UN32 (protein) MISFVTLLAILGLLSISWADQTVRSVAGDQRVTDPVIVGDNSILDYYGGSNYDFSNNFEIGRGTLYIGKESYFSSFQSAPTDVPNSFHLLIKNTNNLQNNGQFIIENIKRHANQCSNSSIQVFPINFQNDGEFEIISGGVEGRCCLPTSVIAPQNFLNNGKFYYKVLTDTGSIYSGSCMQNVDIGASTTTTVNNNLWEFTGSINAQINGAVSGAAQINLDGSNMFVNANTFSGQVVNLINGGSFLQTSDPLSNIVVINGLGTSDTGVTSIAVKGKGKSFTYNPSSGIVKLTTVEGKTYAYQIGCGYNTKKFITNNDSGASYESADNFFVLTYSEPYSPQTCQLENSSIFSSNFISTSTSSSSSSSSASSLPSSMSSSLPSSLSSSLSSSLSSSMSSSMSSLFIIPPPYTTTRSSGSSIIDTEIVSFYSTTDSPGHTITGTTTTTLYGPHTHSSVSTPSSSSESSTTSNSSIESSSLPHTSVSSTPESSITPSSNTISSSPTSDFSSVQSSSIMESSSVVASSSVINSSSIVDSSSSSASSLPSSMSSSLSSSMSSSLPSSMSSSLSSSLSSSLSSSMSSSMSSLFIIPPPYTTTRSSGSSIIDTEIVSFYSTTDSPGHTITGTTTTTLYGPHTHSSVSTPSSSSESSTTSNSSIESSSLPHTSVSSTPESSITPSSNTISSSPTSDFSSVQSSSIMESSSVVASSSVINSSSIVDSSSSSASSLPSSMPSSLPSSMSSSLSSSMSSSLSSSLSSSLSSSMSSSMSSLFIIPPPYTTTRSSGSSIIDTEIVSFYSTTDSPGHTITGTTTTTLYGPHTHSSVSTPSSSSESSTTSNSSIESSSLPHTSVSSTPESSITPSSNTISSSPTSDFSSVQSSSIMESSSVVASSSATQSSSVINSSSIVDSSSSSASSLPSSMPSSLPSSLSSSLSSSLSSSMSSSMSSLFIIPPPYTTTRSSGSSIIDTEIVSFYSTTDSPGHTITGTTTTTLYESSIYSSSSSTIQESELSNTSRTTMTSNSSVSISSTSSRSSFSNTKSSTIVISQSASLPDSKTDIILSTSSNIGYSSRSLLSDLGTSISDSDIHHSVLHSTESYSSNESGTNPFTSIASLSNFIPESSSHTSTALGSENSVISSDILTTMSHPVATNSGDKPTTPKRSEQVSTTMTSSGPTPDTSSFDTDGMSAYSRPEFTTNSLEVNKSSTSQLGNNKQTFSNLQLESTRPHSENEVDNNTRLLQSIQQSSTYGTNNVNPLSPTGSISIPLTEDGQGDNNNWNSPATNDLCTQISFNLTATTITVTDRITITDSIHDISSEVITSYIYQTIVDQKTVTQTVDGKSLANKMSSIPKPSSRSLIQPQPPVAIELQEGAASTSRVSLVSLFISIILVLL",glycan array binding signal (z-score),[1],0.922
same,glycan array binding signal (z-score),[2],0.182
same,glycan array binding signal (z-score),[3],-1.13
same,glycan array binding signal (z-score),[4],-0.775
same,glycan array binding signal (z-score),[5],-1.2
same,glycan array binding signal (z-score),[6],-0.471
same,glycan array binding signal (z-score),[7],-0.178
same,glycan array binding signal (z-score),[8],0.656
same,glycan array binding signal (z-score),[9],-0.288
same,glycan array binding signal (z-score),[10],0.567
same,glycan array binding signal (z-score),[11],0.034
same,glycan array binding signal (z-score),[12],-0.179
same,glycan array binding signal (z-score),[13],-1.29
same,glycan array binding signal (z-score),[14],0.138
same,glycan array binding signal (z-score),[15],-1.97
same,glycan array binding signal (z-score),[16],-0.19
same,glycan array binding signal (z-score),[17],0.735
same,glycan array binding signal (z-score),[18],0.542
same,glycan array binding signal (z-score),[19],0.372
same,glycan array binding signal (z-score),[20],-0.735
same,glycan array binding signal (z-score),[21],0.328
same,glycan array binding signal (z-score),[22],-0.952
same,glycan array binding signal (z-score),[23],-0.705
